Test results: patent US12514887B2, “Oncolytic tumor viruses and methods of use” (priority 2014, dated 2026)
For at least one compound, name, drawing or mass did not settle the structure.

System: HS578T subcutaneous xenografts
Assay: HS578T subcutaneous xenografts, AdSyn-CO335 study

With `CO[C@H]1C[C@@H]2CC[C@@H](C)[C@@](O)(O2)C(=O)C(=O)N2CCCC[C@H]2C(=O)O[C@H]([C@H](C)C[C@@H]2CC[C@@H](O)[C@H](OC)C2)CC(=O)[C@H](C)/C=C(\C)[C@@H](O)[C@@H](OC)C(=O)[C@H](C)C[C@H](C)/C=C/C=C/C=C/1C` [rapamycin, Rapamycin] the “tumor growth compared to no treatment” value (2 mg/kg rapamycin alone) was “not sufficient to block the growth of the tumors” and the “tumor growth compared to no treatment” value (8 mg/kg rapamycin alone, no virus infection) was “sufficient to slow the tumor growth”.
